Laboratory results published in PMC7862700.
This is a selection; strong and weak results do not stand in their true shares. For some of these results: At the low end of the ranking, values are background and their order means little. The list shows a part of the results. For some of these results: The source does not settle which construct or isoform was used.

The chains behind the UniProt entries cited, without tags or fusion partners. Where a name states a change or a piece, a line headed by the entry shows the natural chain unless it says otherwise.
UniProt P32519: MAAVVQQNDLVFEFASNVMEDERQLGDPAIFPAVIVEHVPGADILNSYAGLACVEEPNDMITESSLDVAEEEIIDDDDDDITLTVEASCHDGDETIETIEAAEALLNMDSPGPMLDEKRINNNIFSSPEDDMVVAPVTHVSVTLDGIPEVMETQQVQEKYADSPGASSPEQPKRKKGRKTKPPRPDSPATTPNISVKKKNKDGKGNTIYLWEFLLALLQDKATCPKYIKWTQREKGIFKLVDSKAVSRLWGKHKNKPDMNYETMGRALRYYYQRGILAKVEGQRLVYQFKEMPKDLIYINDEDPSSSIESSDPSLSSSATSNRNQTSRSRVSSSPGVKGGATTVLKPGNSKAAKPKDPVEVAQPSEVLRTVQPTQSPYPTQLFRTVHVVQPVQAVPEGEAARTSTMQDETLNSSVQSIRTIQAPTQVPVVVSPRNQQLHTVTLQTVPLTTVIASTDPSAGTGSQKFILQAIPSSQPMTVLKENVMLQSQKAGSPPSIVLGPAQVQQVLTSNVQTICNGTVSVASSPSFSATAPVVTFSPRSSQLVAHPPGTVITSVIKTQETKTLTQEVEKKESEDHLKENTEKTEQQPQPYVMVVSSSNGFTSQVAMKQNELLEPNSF
UniProt P50549: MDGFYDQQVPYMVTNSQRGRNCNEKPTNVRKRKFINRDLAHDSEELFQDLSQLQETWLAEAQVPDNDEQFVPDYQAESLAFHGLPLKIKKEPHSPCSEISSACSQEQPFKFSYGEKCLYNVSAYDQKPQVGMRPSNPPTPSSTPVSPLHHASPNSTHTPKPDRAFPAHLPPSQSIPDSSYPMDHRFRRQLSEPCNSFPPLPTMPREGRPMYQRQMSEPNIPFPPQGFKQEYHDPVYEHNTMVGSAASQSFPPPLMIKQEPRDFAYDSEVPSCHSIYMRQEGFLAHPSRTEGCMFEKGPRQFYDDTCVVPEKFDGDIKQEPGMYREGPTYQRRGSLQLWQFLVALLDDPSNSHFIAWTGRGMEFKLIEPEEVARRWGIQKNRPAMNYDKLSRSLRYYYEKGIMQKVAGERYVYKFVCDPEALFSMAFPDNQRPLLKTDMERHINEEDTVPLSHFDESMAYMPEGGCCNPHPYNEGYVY

Molecular target: T1, ERG (UniProt P11308)
T1 sequence: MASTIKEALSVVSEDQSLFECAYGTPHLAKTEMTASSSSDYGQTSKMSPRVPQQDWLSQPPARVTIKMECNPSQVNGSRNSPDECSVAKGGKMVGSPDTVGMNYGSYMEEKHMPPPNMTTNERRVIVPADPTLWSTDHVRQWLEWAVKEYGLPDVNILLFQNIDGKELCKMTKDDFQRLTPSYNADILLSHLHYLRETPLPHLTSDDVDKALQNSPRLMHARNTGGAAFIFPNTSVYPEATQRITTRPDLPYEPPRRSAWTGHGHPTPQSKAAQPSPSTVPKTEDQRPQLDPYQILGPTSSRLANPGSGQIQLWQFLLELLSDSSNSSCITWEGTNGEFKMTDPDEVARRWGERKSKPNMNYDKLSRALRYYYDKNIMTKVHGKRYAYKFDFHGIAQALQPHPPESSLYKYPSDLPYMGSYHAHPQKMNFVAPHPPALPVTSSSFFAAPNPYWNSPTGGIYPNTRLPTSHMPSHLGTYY
Assay: DAPPL (digital affinity profiling via proximity ligation, sequencing)
Details: 10 mM Tris-HCl pH 7.5, 50 mM NaCl, 1 mM DTT, 4% glycerol, room temperature, 30 min; GST-TFs on glutathione beads, 16-mer random dsDNA library, 0.1% …; high values mean tight binding; double strand, one strand shown; scale: fold enrichment (6-mer frequency, TF over GST control)

Sequence	binding signal
CCGAAG	0.977
CTTTTC	1.43
TAAAAT	1.19
ATGGAC	1.16
CTCATG	1.21
GCTATA	1.16
ATCATC	1.17
TGTGCT	1.23
GAATCT	1.04
CTCGTG	0.997
TCCCAC	1.37
AATTGT	1.28
TTGCGC	1.02
TAAGAT	1.21
AACCCA	1.06
AACTGC	1.32
ATCGTC	1.03
TAAACG	1.09
TTAAAC	1.25
TACGAA	1.23
ATCCCC	1.52
GCACTT	1.93
CACTCG	1.15
TGGAAA	1.11
TGTCTC	1.23
CGACTT	1.84
GAAAGA	1.02
TTTACT	1.43
ATGACA	1.32

Molecular target: ELF1 (UniProt P32519)
Assay: as above
Details: 10 mM Tris-HCl pH 7.5, 50 mM NaCl, 1 mM DTT, 4% glycerol, room temperature, 30 min; GST-TFs on glutathione beads, 16-mer random dsDNA library, 0.1% …; high values mean tight binding; double strand, one strand shown; scale: fold enrichment (6-mer frequency, TF over GST control)

Sequence	binding signal
TAAAAT	1.24
GCTATA	1.19
ATCATC	1.25
ATCGTC	1.05
ATCCCC	1.5
CGACTT	1.69

Molecular target: T2, ELK4 (UniProt P28324-2)
T2 sequence: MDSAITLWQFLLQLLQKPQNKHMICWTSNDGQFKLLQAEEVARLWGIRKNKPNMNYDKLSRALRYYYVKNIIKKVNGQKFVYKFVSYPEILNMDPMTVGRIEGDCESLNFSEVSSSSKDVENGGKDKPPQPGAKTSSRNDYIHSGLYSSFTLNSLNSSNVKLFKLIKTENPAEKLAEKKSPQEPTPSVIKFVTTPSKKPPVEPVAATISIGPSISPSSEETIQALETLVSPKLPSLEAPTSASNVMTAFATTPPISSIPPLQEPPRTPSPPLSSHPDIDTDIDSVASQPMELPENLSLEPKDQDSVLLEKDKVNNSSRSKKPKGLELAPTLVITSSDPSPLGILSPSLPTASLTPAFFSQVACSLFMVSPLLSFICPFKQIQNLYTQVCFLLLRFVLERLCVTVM
Assay: as above
Details: 10 mM Tris-HCl pH 7.5, 50 mM NaCl, 1 mM DTT, 4% glycerol, room temperature, 30 min; GST-TFs on glutathione beads, 16-mer random dsDNA library, 0.1% …; high values mean tight binding; double strand, one strand shown; scale: fold enrichment (6-mer frequency, TF over GST control)

Sequence	binding signal
TTACTC	1.34
CCGAAG	1.2
CATGCT	1.3
CTTTTC	1.49
TAAAAT	1.2
ATGGAC	1.17
CTCATG	1.28
CGAAGC	1.48
GCTATA	1.18
ACTTTA	1.15
ATCATC	1.31
TGTGCT	1.17
GAATCT	1.08
TCTACG	1.36
CTCGTG	0.971
TCCCAC	1.34
AATTGT	1.14
TTGCGC	0.955
TAAGAT	1.29
CTCAAT	1.3

Sequence	binding signal
AACCCA	1.08
AACTGC	1.33
ATCGTC	0.908
TAAACG	1.2
TTAAAC	1.26
TACGAA	1.23
ATCCCC	1.44
GCACTT	1.62
CACTCG	1.24
TGGAAA	0.993
TGTCTC	1.11
TCTAAG	1.2
CGACTT	1.97
CTGCCC	1.42
AACGAA	1.13
TTCACT	1.42
GAAAGA	1.01
TTTACT	1.66
ATGACA	1.19

Molecular target: T3, ETV4 (UniProt P43268)
T3 sequence: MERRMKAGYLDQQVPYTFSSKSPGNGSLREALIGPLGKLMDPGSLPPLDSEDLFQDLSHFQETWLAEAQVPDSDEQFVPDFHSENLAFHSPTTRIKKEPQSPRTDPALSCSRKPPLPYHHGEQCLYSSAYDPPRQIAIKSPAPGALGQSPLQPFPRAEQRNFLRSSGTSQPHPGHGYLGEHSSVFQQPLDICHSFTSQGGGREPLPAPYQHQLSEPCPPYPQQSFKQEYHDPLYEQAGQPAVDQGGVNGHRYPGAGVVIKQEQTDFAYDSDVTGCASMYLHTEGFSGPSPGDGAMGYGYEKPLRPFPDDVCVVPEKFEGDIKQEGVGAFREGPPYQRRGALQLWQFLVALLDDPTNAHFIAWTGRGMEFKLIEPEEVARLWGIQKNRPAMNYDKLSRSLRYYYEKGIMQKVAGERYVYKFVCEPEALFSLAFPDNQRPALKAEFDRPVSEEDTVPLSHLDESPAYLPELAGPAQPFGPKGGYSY
Assay: as above
Details: 10 mM Tris-HCl pH 7.5, 50 mM NaCl, 1 mM DTT, 4% glycerol, room temperature, 30 min; GST-TFs on glutathione beads, 16-mer random dsDNA library, 0.1% …; high values mean tight binding; double strand, one strand shown; scale: fold enrichment (6-mer frequency, TF over GST control)

Sequence	binding signal
TTACTC	1.32
CCGAAG	1.06
CATGCT	1.22
CTTTTC	1.39
TAAAAT	1.2
ATGGAC	1.21
CTCATG	1.24
CGAAGC	1.31
GCTATA	1.11
ACTTTA	1.22
ATCATC	1.18
TGTGCT	1.31
GAATCT	1.07
TCTACG	1.32
CTCGTG	1.06
TCCCAC	1.39
AATTGT	1.31
TTGCGC	1.04
TAAGAT	1.2
CTCAAT	1.29

Sequence	binding signal
AACCCA	1.07
AACTGC	1.32
ATCGTC	1.1
TAAACG	1.11
TTAAAC	1.19
TACGAA	1.32
ATCCCC	1.44
GCACTT	1.95
CACTCG	1.11
TGGAAA	1.06
TGTCTC	1.33
TCTAAG	1.18
CGACTT	1.77
CTGCCC	1.31
AACGAA	1.14
TTCACT	1.38
GAAAGA	0.933
TTTACT	1.45
ATGACA	1.34

Molecular target: ETV1 (UniProt P50549)
Assay: as above
Details: 10 mM Tris-HCl pH 7.5, 50 mM NaCl, 1 mM DTT, 4% glycerol, room temperature, 30 min; GST-TFs on glutathione beads, 16-mer random dsDNA library, 0.1% …; high values mean tight binding; double strand, one strand shown; scale: fold enrichment (6-mer frequency, TF over GST control)

Sequence	binding signal
TTACTC	1.32
CATGCT	1.19
CGAAGC	1.29
ACTTTA	1.21
GAATCT	1.08
TCTACG	1.44
TCCCAC	1.34
TAAGAT	1.28
CTCAAT	1.27
AACCCA	0.99
TAAACG	1.13
TACGAA	1.24
GCACTT	1.86
TCTAAG	1.25
CTGCCC	1.2
AACGAA	1.09
TTCACT	1.33
ATGACA	1.28

Molecular target: T4, ERF (UniProt P50548)
T4 sequence: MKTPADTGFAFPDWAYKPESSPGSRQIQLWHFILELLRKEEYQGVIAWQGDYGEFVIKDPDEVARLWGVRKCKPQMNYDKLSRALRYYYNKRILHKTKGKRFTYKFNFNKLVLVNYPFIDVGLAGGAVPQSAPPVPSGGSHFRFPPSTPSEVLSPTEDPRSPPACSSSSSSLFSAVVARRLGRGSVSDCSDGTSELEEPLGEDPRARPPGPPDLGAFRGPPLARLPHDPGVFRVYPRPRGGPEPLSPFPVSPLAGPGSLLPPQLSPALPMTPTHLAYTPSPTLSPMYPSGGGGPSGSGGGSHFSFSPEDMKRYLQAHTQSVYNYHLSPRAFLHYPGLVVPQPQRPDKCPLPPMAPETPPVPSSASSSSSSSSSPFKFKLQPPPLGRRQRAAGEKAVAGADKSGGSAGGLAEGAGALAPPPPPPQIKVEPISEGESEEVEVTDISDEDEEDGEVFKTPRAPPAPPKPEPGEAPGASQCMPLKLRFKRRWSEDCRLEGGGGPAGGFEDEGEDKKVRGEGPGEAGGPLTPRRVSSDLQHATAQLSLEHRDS
Assay: as above
Details: 10 mM Tris-HCl pH 7.5, 50 mM NaCl, 1 mM DTT, 4% glycerol, room temperature, 30 min; GST-TFs on glutathione beads, 16-mer random dsDNA library, 0.1% …; high values mean tight binding; double strand, one strand shown; scale: fold enrichment (6-mer frequency, TF over GST control)

Sequence	binding signal
CCGAAG	1.16
CTTTTC	1.33
CTCATG	1.18
GCTATA	1.16
TGTGCT	1.19
AACTGC	1.22
TGGAAA	1.08
GAAAGA	0.959
